This note sets out measurements from paper PMC3419181.

No constants are given. Whether binding was seen depends on the method and setting. Binding seen in cells or lysates may run through a third protein. Binding calls can cover weak binding; strength is not graded here. Sequences can lack the tags named with a protein.

The target of the experiment is HA-TNIK-ΔGCKH (human). In words: co-IP; HEK293 cells co-transfected with tagged TNIK (or HA-TNIK domain constructs) and the tagged partner, without LMP1; tagged TNIK immunoprecipitated by anti-HA (12CA5) or anti-Flag (6F7); immunoblot. A general note: A western blot detects proteins with antibodies after separation by electrophoresis.

B1: Flag-TAK1 (protein, UniProt O43318 1-606)
chain: MSTASAASSSSSSSAGEMIEAPSQVLNFEEIDYKEIEVEEVVGRGAFGVVCKAKWRAKDVAIKQIESESERKAFIVELRQLSRVNHPNIVKLYGACLNPVCLVMEYAEGGSLYNVLHGAEPLPYYTAAHAMSWCLQCSQGVAYLHSMQPKALIHRDLKPPNLLLVAGGTVLKICDFGTACDIQTHMTNNKGSAAWMAPEVFEGSNYSEKCDVFSWGIILWEVITRRKPFDEIGGPAFRIMWAVHNGTRPPLIKNLPKPIESLMTRCWSKDPSQRPSMEEIVKIMTHLMRYFPGADEPLQYPCQYSDEGQSNSATSTGSFMDIASTNTSNKSDTNMEQVPATNDTIKRLESKLLKNQAKQQSESGRLSLGASRGSSVESLPPTSEGKRMSADMSEIEARIAATTAYSKPKRGHRKTASFGNILDVPEIVISGNGQPRRRSIQDLTVTGTEPGQVSSRSSSPSVRMITTSGPTSEKPTRSHPWTPDDSTDTNGSDNSIPMAYLTLDHQLQPLAPCPNSKESMAVFEQHCKMAQEYMKVQTEIALLLQRKQELVAELDQDEKDQQNTSRLVQEHKKLLDENKSLSTYYQQCKKQLEVIRSQQQKRQGTS
Take B1: the binding entry was “binds weakly”.
